PubChem BioAssay AID743121 | NCATS, 2013

- Aim: 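Knock-downs that sensitise breast cancer cells to camptothecin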 (primary screen)
- Cell system: MDA-MB-231 cells, a human breast cancer line
- Reagent: single siRNA against human genes, 20 nM siRNA (0.8 pmol per well)
- Timing: 120 h (drug added 48 h after transfection, read 72 h later)
- Treatment: camptothecin 20 nM (about EC30) for 72 h; vehicle 0.1% DMSO in parallel plates
- Read-out: 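Cell viability by ATP luminescence (CellTiter-Glo) as % of non-targeting siRNA wells, and the log2 ratio of viability without drug over viability with camptothecin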
- Scale: log2 vehicle/camptothecin viability: higher = stronger sensitisation to camptothecin; viability with camptothecin: higher = more viable cells
- Hit rule: 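Each gene scored by redundant siRNA activity (RSA) over its individual siRNA ratios; a gene is called active at p < 0.001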
In all, the deposit lists about 26,000 reagents; this is an unselected part. Over the whole deposit, 167 (0.63%) got an active call. 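Calls are per gene from RSA p-values that are not deposited; an individual active-marked siRNA can sensitise only weakly.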 A number with no mark means an inactive call. Reagents against one gene are numbered here. Further read-outs or replicates are left out here.

gene | reagent no. | log2 vehicle/camptothecin viability | viability with camptothecin (% of control)
DNAJB9 (DnaJ heat shock protein family (Hsp40) member B9) | 1 | -0.0345 | 84.6
DNAJB9 (DnaJ heat shock protein family (Hsp40) member B9) | 2 | 0.0655 | 95.3
DNAJB9 (DnaJ heat shock protein family (Hsp40) member B9) | 3 | -0.442 | 80.8
DNAJB9 (DnaJ heat shock protein family (Hsp40) member B9) | 4 | 0.0668 | 89.8
SLC7A5 | 1 | 0.197 | 60.4
SLC7A5 | 2 | -0.279 | 98.2
SLC7A5 | 3 | -0.435 | 110
SLC7A5 | 4 | -0.324 | 108
SLC7A5 | 5 | -0.202 | 86
GPR37L1 (G protein-coupled receptor 37 like 1) | 1 | 0.0168 | 97.1
GPR37L1 (G protein-coupled receptor 37 like 1) | 2 | 0.185 | 24
GPR37L1 (G protein-coupled receptor 37 like 1) | 3 | -0.363 | 55.2
GPR37L1 (G protein-coupled receptor 37 like 1) | 4 | -0.318 | 79.6
LHCGR (luteinizing hormone/choriogonadotropin receptor) | 1 | 0.016 | 25.6
LHCGR (luteinizing hormone/choriogonadotropin receptor) | 2 | -0.305 | 95.8
LHCGR (luteinizing hormone/choriogonadotropin receptor) | 3 | -0.277 | 76.8
LHCGR (luteinizing hormone/choriogonadotropin receptor) | 4 | -0.556 | 83.8
TNFRSF17 (TNF receptor superfamily member 17) | 1 | -0.0802 | 83.6
TNFRSF17 (TNF receptor superfamily member 17) | 2 | -0.239 | 131
TNFRSF17 (TNF receptor superfamily member 17) | 3 | -0.133 | 105
TNFRSF17 (TNF receptor superfamily member 17) | 4 | -0.503 | 68.2
ARHGAP32 (Rho GTPase activating protein 32) | 1 | 0.0493 | 86.8
ARHGAP32 (Rho GTPase activating protein 32) | 2 | -0.123 | 101
ARHGAP32 (Rho GTPase activating protein 32) | 3 | -0.147 | 91.2
GPRC5C (G protein-coupled receptor class C group 5 member C) | 1 | -0.354 | 84.4
GPRC5C (G protein-coupled receptor class C group 5 member C) | 2 | -0.212 | 110
GPRC5C (G protein-coupled receptor class C group 5 member C) | 3 | -0.249 | 105
GPRC5C (G protein-coupled receptor class C group 5 member C) | 4 | 0.22 | 79.6
PPM1A (protein phosphatase, Mg2+/Mn2+ dependent 1A) | 1 | 0.0586 | 71.8
PPM1A (protein phosphatase, Mg2+/Mn2+ dependent 1A) | 2 | -0.228 | 83.2
PPM1A (protein phosphatase, Mg2+/Mn2+ dependent 1A) | 3 | -0.0191 | 93.9
PPM1A (protein phosphatase, Mg2+/Mn2+ dependent 1A) | 4 | -0.344 | 68.9
CDKN2D (cyclin dependent kinase inhibitor 2D) | 1 | -0.32 | 51.3
CDKN2D (cyclin dependent kinase inhibitor 2D) | 2 | -0.0283 | 110
CDKN2D (cyclin dependent kinase inhibitor 2D) | 3 | 0.166 | 73.9
CDKN2D (cyclin dependent kinase inhibitor 2D) | 4 | 0.78 | 33
RPS6KB2 (ribosomal protein S6 kinase B2) | 1 | -0.322 | 50.6
RPS6KB2 (ribosomal protein S6 kinase B2) | 2 | -0.106 | 97.3
RPS6KB2 (ribosomal protein S6 kinase B2) | 3 | -0.171 | 89.4
RPS6KB2 (ribosomal protein S6 kinase B2) | 4 | -0.204 | 114
VN1R2 (vomeronasal 1 receptor 2) | 1 | -0.25 | 51.7
VN1R2 (vomeronasal 1 receptor 2) | 2 | -0.65 | 65.4
VN1R2 (vomeronasal 1 receptor 2) | 3 | -0.564 | 105
VN1R2 (vomeronasal 1 receptor 2) | 4 | -0.28 | 82.8
PRTN3 (proteinase 3) | 1 | 0.502 | 40.3
PRTN3 (proteinase 3) | 2 | -0.142 | 90.4
PRTN3 (proteinase 3) | 3 | 0.738 | 45.7
PRTN3 (proteinase 3) | 4 | 0.0789 | 81.7
TPTE (transmembrane phosphatase with tensin homology) | 1 | -0.302 | 115
TPTE (transmembrane phosphatase with tensin homology) | 2 | -0.0778 | 43.7
TPTE (transmembrane phosphatase with tensin homology) | 3 | -0.115 | 93.6
TPTE (transmembrane phosphatase with tensin homology) | 4 | -0.335 | 118
TCF3 (transcription factor 3) | 1 | -0.0951 | 76.6
TCF3 (transcription factor 3) | 2 | 0.0793 | 16
TCF3 (transcription factor 3) | 3 | -0.224 | 104
TCF3 (transcription factor 3) | 4 | -0.187 | 69
IGF1 (insulin like growth factor 1) | 1 | -0.358 | 88
IGF1 (insulin like growth factor 1) | 2 | -0.23 | 53.1
IGF1 (insulin like growth factor 1) | 3 | -0.219 | 84.2
IGF1 (insulin like growth factor 1) | 4 | -0.792 | 66.8
TRPV2 | 1 | 0.144 | 68.2
TRPV2 | 2 | -0.38 | 64.6
TRPV2 | 3 | 0.0364 | 49.9
TRPV2 | 4 | -0.198 | 48.9
GPR31 (G protein-coupled receptor 31) | 1 | 0.38 | 37.4
GPR31 (G protein-coupled receptor 31) | 2 | -0.335 | 97.9
GPR31 (G protein-coupled receptor 31) | 3 | 0.291 | 48.7
GPR31 (G protein-coupled receptor 31) | 4 | -0.514 | 85.8
PAN3 (poly(A) specific ribonuclease subunit PAN3) | 1 | 0.187 | 61.8
PAN3 (poly(A) specific ribonuclease subunit PAN3) | 2 | -0.0263 | 79.3
PAN3 (poly(A) specific ribonuclease subunit PAN3) | 3 | -0.0252 | 87.9
PAN3 (poly(A) specific ribonuclease subunit PAN3) | 4 | -0.00103 | 64.6
MELK (maternal embryonic leucine zipper kinase) | 1 | -0.474 | 44.2
MELK (maternal embryonic leucine zipper kinase) | 2 | -0.0861 | 85.6
MELK (maternal embryonic leucine zipper kinase) | 3 | -0.314 | 111
MELK (maternal embryonic leucine zipper kinase) | 4 | -0.52 | 76.1
BTNL2 (butyrophilin like 2) | 1 | 0.339 | 54
BTNL2 (butyrophilin like 2) | 2 | -0.11 | 75.3
BTNL2 (butyrophilin like 2) | 3 | -0.311 | 61.4
FGFR3 (fibroblast growth factor receptor 3) | 1 | -0.179 | 114
FGFR3 (fibroblast growth factor receptor 3) | 2 | 0.137 | 76.1
FGFR3 (fibroblast growth factor receptor 3) | 3 | 0.574 | 28.1
FGFR3 (fibroblast growth factor receptor 3) | 4 | -0.0642 | 90.5
PIP4K2B (phosphatidylinositol-5-phosphate 4-kinase type 2 beta) | 1 | -0.293 | 87.8
PIP4K2B (phosphatidylinositol-5-phosphate 4-kinase type 2 beta) | 2 | 0.186 | 17.4
PIP4K2B (phosphatidylinositol-5-phosphate 4-kinase type 2 beta) | 3 | -0.408 | 89.2
PIP4K2B (phosphatidylinositol-5-phosphate 4-kinase type 2 beta) | 4 | -0.121 | 105
